Laboratory results reported in patent US20240034772A1.
These are yes or no findings as the source states them, for the method shown. Binding can be weak; no strength is given.

biological target: MPV F-protein HMPV_Yokohama/JPN(P8527)2016 (human metapneumovirus (hMPV), strain Yokohama/JPN(P8527)2016 (B2)); experiment: flow cytometry on fixed, permeabilized transfected Expi293 cells, antibody at 5 µg/ml

Binder | binding
MPE33 (antibody, V domains shown) VH: QVQLQESGPGLVKPSQTLSLTCTVSGDSISNGSYCWNWVRQPAGKGLEWIGRIYPIGNTNYNPSLKSRVTISLDTSKNQFSLKLASVTAADTAVYYCAREARIFEGYYYYYYGLDVWGQGTTVTVSS VL: EIVLTQSPATLSLSPGERATLSCRASQTISSYLAWYQQKPGQAPRLLISDVSKRATGIPARFSGSGSGTDFTLTISSLEPEDFAVYYCHQRSNWDTFGQGTKLEIK | binds
MPE33_S36A (antibody, V domains shown) VH: QVQLQESGPGLVKPSQTLSLTCTVSGDSISNGAYCWNWVRQPAGKGLEWIGRIYPIGNTNYNPSLKSRVTISLDTSKNQFSLKLASVTAADTAVYYCAREARIFEGYYYYYYGLDVWGQGTTVTVSS VL: EIVLTQSPATLSLSPGERATLSCRASQTISSYLAWYQQKPGQAPRLLISDVSKRATGIPARFSGSGSGTDFTLTISSLEPEDFAVYYCHQRSNWDTFGQGTKLEIK | binds
MPE33_N34Q (antibody, V domains shown) VH: QVQLQESGPGLVKPSQTLSLTCTVSGDSISQGSYCWNWVRQPAGKGLEWIGRIYPIGNTNYNPSLKSRVTISLDTSKNQFSLKLASVTAADTAVYYCAREARIFEGYYYYYYGLDVWGQGTTVTVSS VL: EIVLTQSPATLSLSPGERATLSCRASQTISSYLAWYQQKPGQAPRLLISDVSKRATGIPARFSGSGSGTDFTLTISSLEPEDFAVYYCHQRSNWDTFGQGTKLEIK | binds
MPE33_N34S (antibody, V domains shown) VH: QVQLQESGPGLVKPSQTLSLTCTVSGDSISSGSYCWNWVRQPAGKGLEWIGRIYPIGNTNYNPSLKSRVTISLDTSKNQFSLKLASVTAADTAVYYCAREARIFEGYYYYYYGLDVWGQGTTVTVSS VL: EIVLTQSPATLSLSPGERATLSCRASQTISSYLAWYQQKPGQAPRLLISDVSKRATGIPARFSGSGSGTDFTLTISSLEPEDFAVYYCHQRSNWDTFGQGTKLEIK | binds
MPE33_C38S (antibody, V domains shown) VH: QVQLQESGPGLVKPSQTLSLTCTVSGDSISNGSYSWNWVRQPAGKGLEWIGRIYPIGNTNYNPSLKSRVTISLDTSKNQFSLKLASVTAADTAVYYCAREARIFEGYYYYYYGLDVWGQGTTVTVSS VL: EIVLTQSPATLSLSPGERATLSCRASQTISSYLAWYQQKPGQAPRLLISDVSKRATGIPARFSGSGSGTDFTLTISSLEPEDFAVYYCHQRSNWDTFGQGTKLEIK | binds
MPE33_C38A (antibody, V domains shown) VH: QVQLQESGPGLVKPSQTLSLTCTVSGDSISNGSYAWNWVRQPAGKGLEWIGRIYPIGNTNYNPSLKSRVTISLDTSKNQFSLKLASVTAADTAVYYCAREARIFEGYYYYYYGLDVWGQGTTVTVSS VL: EIVLTQSPATLSLSPGERATLSCRASQTISSYLAWYQQKPGQAPRLLISDVSKRATGIPARFSGSGSGTDFTLTISSLEPEDFAVYYCHQRSNWDTFGQGTKLEIK | binds
MPE33_C38Y (antibody, V domains shown) VH: QVQLQESGPGLVKPSQTLSLTCTVSGDSISNGSYYWNWVRQPAGKGLEWIGRIYPIGNTNYNPSLKSRVTISLDTSKNQFSLKLASVTAADTAVYYCAREARIFEGYYYYYYGLDVWGQGTTVTVSS VL: EIVLTQSPATLSLSPGERATLSCRASQTISSYLAWYQQKPGQAPRLLISDVSKRATGIPARFSGSGSGTDFTLTISSLEPEDFAVYYCHQRSNWDTFGQGTKLEIK | binds
MPE33_N34S_C38Y (antibody, V domains shown) VH: QVQLQESGPGLVKPSQTLSLTCTVSGDSISSGSYYWNWVRQPAGKGLEWIGRIYPIGNTNYNPSLKSRVTISLDTSKNQFSLKLASVTAADTAVYYCAREARIFEGYYYYYYGLDVWGQGTTVTVSS VL: EIVLTQSPATLSLSPGERATLSCRASQTISSYLAWYQQKPGQAPRLLISDVSKRATGIPARFSGSGSGTDFTLTISSLEPEDFAVYYCHQRSNWDTFGQGTKLEIK | binds
MPF5_VH117D (MPF5) (antibody, V domains shown) VH: QVQLQQWGAGLLKPSETLSLTCVGNSVSFNDYYWSWIRQSPGKGLEWIGEIGHGGEHNYNPSLNGRVTMSVDTSNNHFSLLLSSVTAADTAMYYCARGIGWLPPPDWGQGTLVTVSS VL: DIVMTQSPDSLAVSLGERATINCKSSQSVLFSSNNENYLAWFQQKPGQPPKLLIYWASTRESGVPDRFSGSGSGTDFTLTITSLQAEDVAVYYCQQFYSPPWTFGQGTKVEIK | binds
MPF5_VH117H (antibody, V domains shown) VH: QVQLQQWGAGLLKPSETLSLTCVGNSVSFNDYYWSWIRQSPGKGLEWIGEIGHGGEHNYNPSLNGRVTMSVDTSNNHFSLLLSSVTAADTAMYYCARGIGWLPPPHWGQGTLVTVSS VL: DIVMTQSPDSLAVSLGERATINCKSSQSVLFSSNNENYLAWFQQKPGQPPKLLIYWASTRESGVPDRFSGSGSGTDFTLTITSLQAEDVAVYYCQQFYSPPWTFGQGTKVEIK | binds
